This passage reports binding results from US20260193366A1 (APOGEE THERAPEUTICS, published 2026).

Chains of the proteins cited; added tags and fusions are not shown. Lines headed by an entry give the natural chain unless they say otherwise; changes in a name come on top.
UniProt P78552: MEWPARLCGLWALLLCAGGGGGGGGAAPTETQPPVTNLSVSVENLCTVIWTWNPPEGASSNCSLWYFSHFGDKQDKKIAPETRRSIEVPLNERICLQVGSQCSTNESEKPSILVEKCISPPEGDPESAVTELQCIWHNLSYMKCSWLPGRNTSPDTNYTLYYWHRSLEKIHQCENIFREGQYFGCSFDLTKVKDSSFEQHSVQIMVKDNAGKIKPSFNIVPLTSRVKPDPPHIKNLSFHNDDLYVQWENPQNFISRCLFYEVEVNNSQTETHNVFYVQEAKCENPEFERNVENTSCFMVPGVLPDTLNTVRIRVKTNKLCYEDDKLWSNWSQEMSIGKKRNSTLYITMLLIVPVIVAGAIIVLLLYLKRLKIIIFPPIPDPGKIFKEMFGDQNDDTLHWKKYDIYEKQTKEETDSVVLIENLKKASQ

No constants are given. Whether binding was seen depends on the method and setting. Some results given as binding are weak or reduced against the parent protein; the word gives no strength.

The target in experiment [1] is hIL-13Rα/hIL-4Rα on HEK293 cells (human) (UniProt P78552). The experiment is described as follows: FACS blocking assay: antibody pre-mixed with biotinylated hIL-4 (0.04 ug/mL), binding to HEK293 cells stably expressing hIL-13Rα and hIL-4Rα, detected with Alexa Fluor 488 streptavidin; y axis % inhibition of IL-4 binding.
Experiment [2] shares this target. The experiment is described as follows: FACS blocking assay: antibody pre-mixed with biotinylated hIL-13 (0.05 ug/mL), binding to HEK293 cells stably expressing hIL-13Rα and hIL-4Rα, detected with Alexa Fluor 488 streptavidin; y axis % inhibition of IL-13 binding.

B1: Construct 31 (mAb443) with IgG1 YTE LALA heavy chain constant region (antibody, V domains shown)
VH: EVQLVESGGGLEQPGGSLRLSCAGSGFTFRDFAMTWVRQAPGKGLEWVSSISGSGGNIYYADSVKGRFTISRDNSKNTLYLQMNSLRAEDTAVYYCAKDRLSVTVRPRYYGLDVWGQGTTVTVSS
VL: DIVMTQSPLSLPVTPGEPASISCRSSQSLLYSNGYNYLDWYLQKSGQSPQLLIYLGSNRASGVPDRFSGSGSGTDFTLKISRVEAEDVGFYYCMQALQAPYTFGQGTKLEIK
Regarding B1, the binding entry in experiment [1] and in experiment [2] was “binds” in each case.
